The list shows a part of the results. The data scatter; read single values as rough.
The targets below were run with ClCC(=O)N[C@@H]1CCCc2ccccc12 (assay: log2 mean competition ratio of IA-DTB cysteine labelling (DMSO/compound) (log2 ratio); higher = stronger cysteine engagement by compound). Conditions: 50 µM; treatment time: 4 h; cell line lysate: HEK293T.
Protocol: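 IA-DTB competitive cysteine chemoproteomics in HEK293T RIPA lysate. Lysates were treated with compound 29 or 30 at 50 or 200 µM for 4 h, then IA-DTB (500 µM, 1 h), trypsin-digested, NeutrAvidin-enriched and analysed by diaPASEF. Competition ratio = intensity DMSO / intensity compound (n=4 treated, n=64 DMSO); binding: mean log2 CR ≥ 1 and p ≤ 0.05 plus QC filters. Target is the cysteine site.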

Chains of the proteins cited; added tags and fusions are not shown. Lines headed by an entry give the natural chain unless they say otherwise; changes in a name come on top. Residues count along the entry.
UniProt P78527, whole entry, looked up: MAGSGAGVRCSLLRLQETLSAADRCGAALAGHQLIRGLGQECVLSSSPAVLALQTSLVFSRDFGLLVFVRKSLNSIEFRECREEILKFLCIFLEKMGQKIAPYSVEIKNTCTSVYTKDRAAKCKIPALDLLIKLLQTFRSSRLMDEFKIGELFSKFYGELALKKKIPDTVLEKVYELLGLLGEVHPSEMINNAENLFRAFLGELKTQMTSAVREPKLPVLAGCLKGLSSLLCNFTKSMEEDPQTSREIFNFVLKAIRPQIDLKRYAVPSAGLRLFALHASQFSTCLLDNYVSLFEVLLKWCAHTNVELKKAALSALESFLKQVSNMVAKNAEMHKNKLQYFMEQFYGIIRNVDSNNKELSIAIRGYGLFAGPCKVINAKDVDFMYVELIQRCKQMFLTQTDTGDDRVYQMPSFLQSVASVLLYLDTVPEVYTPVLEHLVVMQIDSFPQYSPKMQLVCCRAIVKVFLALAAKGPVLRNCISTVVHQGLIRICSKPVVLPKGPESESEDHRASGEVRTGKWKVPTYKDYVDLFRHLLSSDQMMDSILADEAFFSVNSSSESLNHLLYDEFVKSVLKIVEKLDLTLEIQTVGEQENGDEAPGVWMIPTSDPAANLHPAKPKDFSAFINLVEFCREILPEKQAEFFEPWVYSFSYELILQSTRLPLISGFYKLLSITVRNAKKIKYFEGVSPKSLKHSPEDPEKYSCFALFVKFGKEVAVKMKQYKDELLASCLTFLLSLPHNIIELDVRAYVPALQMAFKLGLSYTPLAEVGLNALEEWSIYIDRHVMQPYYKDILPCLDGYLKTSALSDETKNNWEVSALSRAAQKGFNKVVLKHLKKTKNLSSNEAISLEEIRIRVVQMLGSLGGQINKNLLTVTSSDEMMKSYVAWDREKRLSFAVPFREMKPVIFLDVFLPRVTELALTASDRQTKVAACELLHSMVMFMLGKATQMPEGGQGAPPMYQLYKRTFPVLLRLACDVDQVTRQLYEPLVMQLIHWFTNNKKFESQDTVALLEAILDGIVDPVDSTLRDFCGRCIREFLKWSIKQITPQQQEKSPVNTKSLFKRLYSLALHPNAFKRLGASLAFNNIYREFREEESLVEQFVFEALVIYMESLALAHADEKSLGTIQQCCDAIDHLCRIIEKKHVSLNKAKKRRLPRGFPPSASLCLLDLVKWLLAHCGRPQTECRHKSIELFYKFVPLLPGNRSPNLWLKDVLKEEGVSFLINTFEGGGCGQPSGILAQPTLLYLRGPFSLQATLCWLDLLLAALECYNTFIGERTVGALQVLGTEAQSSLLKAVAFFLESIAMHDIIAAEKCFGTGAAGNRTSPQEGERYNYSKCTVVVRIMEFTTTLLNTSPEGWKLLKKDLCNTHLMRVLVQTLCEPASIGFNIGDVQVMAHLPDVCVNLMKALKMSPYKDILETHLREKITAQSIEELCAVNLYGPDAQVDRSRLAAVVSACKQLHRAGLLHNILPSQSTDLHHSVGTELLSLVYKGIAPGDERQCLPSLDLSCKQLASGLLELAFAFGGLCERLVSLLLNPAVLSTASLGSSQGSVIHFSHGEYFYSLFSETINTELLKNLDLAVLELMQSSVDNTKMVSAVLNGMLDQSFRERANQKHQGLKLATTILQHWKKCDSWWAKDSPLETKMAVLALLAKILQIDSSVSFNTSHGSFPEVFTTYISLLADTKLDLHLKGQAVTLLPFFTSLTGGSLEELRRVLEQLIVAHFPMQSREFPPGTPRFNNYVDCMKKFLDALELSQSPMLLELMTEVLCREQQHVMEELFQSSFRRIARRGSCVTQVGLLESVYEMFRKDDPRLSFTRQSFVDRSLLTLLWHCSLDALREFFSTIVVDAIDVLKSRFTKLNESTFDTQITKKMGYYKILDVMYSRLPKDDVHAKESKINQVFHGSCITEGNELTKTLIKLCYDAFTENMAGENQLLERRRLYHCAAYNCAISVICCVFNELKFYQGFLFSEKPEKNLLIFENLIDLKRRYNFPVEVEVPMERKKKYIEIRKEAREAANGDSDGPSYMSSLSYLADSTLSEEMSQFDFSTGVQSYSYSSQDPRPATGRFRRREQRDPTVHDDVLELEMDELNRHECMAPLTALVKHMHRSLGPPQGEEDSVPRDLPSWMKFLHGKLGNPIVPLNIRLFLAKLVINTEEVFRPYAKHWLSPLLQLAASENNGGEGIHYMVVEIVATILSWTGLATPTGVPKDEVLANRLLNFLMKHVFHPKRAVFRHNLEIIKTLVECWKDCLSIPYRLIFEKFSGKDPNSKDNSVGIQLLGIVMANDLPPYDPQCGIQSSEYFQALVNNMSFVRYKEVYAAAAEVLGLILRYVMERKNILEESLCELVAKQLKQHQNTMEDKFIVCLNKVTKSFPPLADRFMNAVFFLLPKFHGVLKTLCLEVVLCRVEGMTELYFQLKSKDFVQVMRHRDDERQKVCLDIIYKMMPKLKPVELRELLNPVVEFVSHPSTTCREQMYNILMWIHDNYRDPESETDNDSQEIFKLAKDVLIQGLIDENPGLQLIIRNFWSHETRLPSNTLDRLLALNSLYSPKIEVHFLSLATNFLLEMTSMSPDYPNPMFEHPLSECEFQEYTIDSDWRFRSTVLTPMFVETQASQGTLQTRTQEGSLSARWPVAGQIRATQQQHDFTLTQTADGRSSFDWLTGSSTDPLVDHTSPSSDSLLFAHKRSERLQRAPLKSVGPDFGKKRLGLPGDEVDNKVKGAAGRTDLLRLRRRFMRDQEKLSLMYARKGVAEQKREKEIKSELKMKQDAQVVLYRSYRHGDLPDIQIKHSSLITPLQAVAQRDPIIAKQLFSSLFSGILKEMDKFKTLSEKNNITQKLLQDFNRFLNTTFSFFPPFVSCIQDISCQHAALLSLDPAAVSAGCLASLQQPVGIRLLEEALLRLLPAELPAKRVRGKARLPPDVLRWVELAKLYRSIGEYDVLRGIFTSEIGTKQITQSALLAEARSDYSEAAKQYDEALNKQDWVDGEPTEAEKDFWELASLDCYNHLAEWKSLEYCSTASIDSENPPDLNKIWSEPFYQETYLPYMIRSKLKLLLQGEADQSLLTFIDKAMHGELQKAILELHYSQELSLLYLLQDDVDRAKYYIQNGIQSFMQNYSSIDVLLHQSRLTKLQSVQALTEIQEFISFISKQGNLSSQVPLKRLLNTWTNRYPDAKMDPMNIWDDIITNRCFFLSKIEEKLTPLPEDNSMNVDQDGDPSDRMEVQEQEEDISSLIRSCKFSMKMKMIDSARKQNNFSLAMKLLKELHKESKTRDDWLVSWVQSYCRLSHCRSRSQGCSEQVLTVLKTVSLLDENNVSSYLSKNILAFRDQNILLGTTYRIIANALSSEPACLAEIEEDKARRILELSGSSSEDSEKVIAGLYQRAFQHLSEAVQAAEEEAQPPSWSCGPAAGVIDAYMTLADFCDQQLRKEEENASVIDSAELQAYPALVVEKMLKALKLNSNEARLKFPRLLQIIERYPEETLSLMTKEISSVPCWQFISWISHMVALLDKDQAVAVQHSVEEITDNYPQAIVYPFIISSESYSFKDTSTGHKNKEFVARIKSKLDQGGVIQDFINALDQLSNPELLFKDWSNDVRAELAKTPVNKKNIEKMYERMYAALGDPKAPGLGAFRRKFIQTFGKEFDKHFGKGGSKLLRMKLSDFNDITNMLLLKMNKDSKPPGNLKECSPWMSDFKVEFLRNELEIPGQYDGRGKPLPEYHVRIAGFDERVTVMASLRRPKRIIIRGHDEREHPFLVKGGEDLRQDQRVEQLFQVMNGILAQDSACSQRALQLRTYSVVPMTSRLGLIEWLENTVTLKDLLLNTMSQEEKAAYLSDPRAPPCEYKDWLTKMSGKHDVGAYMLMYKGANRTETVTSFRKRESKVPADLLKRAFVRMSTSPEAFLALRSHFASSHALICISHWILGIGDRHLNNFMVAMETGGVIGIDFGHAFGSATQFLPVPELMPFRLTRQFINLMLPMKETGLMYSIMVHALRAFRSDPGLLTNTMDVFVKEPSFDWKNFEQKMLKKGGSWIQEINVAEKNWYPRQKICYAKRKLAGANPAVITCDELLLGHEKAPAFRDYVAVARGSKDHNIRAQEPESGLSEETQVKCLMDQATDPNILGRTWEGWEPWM
UniProt Q969H6: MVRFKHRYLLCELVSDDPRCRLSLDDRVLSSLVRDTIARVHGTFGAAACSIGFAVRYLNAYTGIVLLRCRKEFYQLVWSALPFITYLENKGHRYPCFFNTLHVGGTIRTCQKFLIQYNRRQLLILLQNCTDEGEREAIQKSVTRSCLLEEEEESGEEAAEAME
UniProt O75569: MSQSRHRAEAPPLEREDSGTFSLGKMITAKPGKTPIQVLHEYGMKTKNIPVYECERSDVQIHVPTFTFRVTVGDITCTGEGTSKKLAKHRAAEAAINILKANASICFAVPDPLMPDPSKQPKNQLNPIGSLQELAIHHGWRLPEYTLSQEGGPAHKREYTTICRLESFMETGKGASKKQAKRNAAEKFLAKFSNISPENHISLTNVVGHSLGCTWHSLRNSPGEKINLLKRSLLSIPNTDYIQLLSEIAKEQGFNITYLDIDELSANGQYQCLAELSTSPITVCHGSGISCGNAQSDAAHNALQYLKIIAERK
UniProt Q13356: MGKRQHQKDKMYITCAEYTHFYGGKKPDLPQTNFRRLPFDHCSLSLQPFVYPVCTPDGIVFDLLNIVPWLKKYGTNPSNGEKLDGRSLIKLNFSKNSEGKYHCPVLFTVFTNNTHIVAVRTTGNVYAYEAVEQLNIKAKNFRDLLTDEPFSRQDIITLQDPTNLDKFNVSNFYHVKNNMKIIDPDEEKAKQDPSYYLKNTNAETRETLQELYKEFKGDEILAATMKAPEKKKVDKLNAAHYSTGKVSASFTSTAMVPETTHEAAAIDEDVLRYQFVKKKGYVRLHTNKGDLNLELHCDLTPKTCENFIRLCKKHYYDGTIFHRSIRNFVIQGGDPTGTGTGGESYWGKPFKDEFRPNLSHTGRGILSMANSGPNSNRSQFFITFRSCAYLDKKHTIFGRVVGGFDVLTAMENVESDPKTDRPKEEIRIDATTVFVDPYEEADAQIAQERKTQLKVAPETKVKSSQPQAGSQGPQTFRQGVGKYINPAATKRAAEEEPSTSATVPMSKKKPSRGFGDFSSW
UniProt Q05655, 505-524: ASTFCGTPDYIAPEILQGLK
UniProt Q96HA1, whole entry, looked up: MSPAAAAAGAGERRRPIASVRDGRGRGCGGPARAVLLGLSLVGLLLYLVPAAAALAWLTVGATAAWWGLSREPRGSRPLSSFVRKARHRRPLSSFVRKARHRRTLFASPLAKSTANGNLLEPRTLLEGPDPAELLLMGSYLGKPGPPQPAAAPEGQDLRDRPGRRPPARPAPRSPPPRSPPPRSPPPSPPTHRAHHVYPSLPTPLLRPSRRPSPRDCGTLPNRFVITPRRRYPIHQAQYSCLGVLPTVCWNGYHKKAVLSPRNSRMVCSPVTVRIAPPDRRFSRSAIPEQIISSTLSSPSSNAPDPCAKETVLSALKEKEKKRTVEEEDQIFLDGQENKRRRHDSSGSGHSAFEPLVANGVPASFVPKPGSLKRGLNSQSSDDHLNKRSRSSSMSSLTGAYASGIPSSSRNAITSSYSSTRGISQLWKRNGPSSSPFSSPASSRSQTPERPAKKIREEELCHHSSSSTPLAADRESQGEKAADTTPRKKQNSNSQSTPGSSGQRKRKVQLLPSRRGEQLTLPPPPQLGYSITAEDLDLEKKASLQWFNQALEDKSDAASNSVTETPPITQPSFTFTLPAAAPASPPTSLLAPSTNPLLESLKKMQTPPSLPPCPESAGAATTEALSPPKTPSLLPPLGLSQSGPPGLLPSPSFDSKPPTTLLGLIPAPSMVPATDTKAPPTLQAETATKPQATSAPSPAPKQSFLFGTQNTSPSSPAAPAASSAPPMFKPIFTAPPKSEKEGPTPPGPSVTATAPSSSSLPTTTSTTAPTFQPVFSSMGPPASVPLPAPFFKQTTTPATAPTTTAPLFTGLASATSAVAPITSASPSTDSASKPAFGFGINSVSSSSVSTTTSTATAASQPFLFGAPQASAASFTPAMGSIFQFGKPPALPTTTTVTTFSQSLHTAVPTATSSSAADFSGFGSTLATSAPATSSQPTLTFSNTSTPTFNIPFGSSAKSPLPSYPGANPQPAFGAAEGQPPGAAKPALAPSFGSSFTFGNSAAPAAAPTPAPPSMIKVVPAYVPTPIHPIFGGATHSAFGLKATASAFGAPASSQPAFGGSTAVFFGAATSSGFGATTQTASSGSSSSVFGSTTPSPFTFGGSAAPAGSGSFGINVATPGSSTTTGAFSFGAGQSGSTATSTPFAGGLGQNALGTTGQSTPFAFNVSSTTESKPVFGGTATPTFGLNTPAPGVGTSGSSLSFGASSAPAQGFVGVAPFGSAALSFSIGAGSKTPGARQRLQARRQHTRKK
UniProt Q96HA1, 285-309: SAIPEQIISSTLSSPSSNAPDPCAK
UniProt Q05513, 88-112: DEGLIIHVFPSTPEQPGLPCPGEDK

| Target | log2 mean competition ratio |
| --- | --- |
| PRKDC C2244 (UniProt P78527) | 0.213 |
| POP5 C146 (UniProt Q969H6) | -0.377 |
| PRPF38A C116 (UniProt Q8NAV1) | -0.00337 |
| PRKRA C106 (UniProt O75569) | -0.28 |
| PRMT6 C221 (UniProt Q96LA8) | 0.482 |
| PPIL2 C387 (UniProt Q13356) | -0.0739 |
| PRORP C367 (UniProt O15091) | -0.0495 |
| PRDM16 C771 | 0.0982 |
| PRPF6 C339 (UniProt O94906) | -0.0639 |
| PPP2R5A C359 (UniProt Q15172) | 0.347 |
| PRKCD C208 (UniProt Q05655) | -0.0881 |
| PPP4R1 C663 (UniProt Q8TF05) | -0.00272 |
| PRKDC C2435 (UniProt P78527) | -0.19 |
| POLR2A C154 | 0.2 |
| POLR2G C38 (UniProt P62487) | -0.0862 |
| PPM1G C351 (UniProt O15355) | -0.0868 |
| PRR12 C417 (UniProt Q9ULL5) | -0.00453 |
| PORCN C375 (UniProt Q9H237) | 0.467 |
| PPP6R2 C665 (UniProt O75170) | 0.059 |

| Target | log2 mean competition ratio |
| --- | --- |
| POM121 C268 (UniProt Q96HA1) | 0.132 |
| PPM1L C340 (UniProt Q5SGD2) | 0.12 |
| PPIG C310 (UniProt Q13427) | 0.217 |
| PPA2 C274 (UniProt Q9H2U2) | 0.111 |
| POLR3B C973 (UniProt Q9NW08) | 0.0161 |
| PRKDC C1742 (UniProt P78527) | 0.0695 |
| POM121 C307 (UniProt Q96HA1) | -0.203 |
| POLR3A C1174 (UniProt O14802) | -0.511 |
| POLR2M C115 | 0.0764 |
| PPIB C202 (UniProt P23284) | -0.165 |
| PRR14L C1027 (UniProt Q5THK1) | 0.0777 |
| POLR3E C350 (UniProt Q9NVU0) | 0.055 |
| PRKCD C509 (UniProt Q05655) | 0.281 |
| POLR2A C1245 | -0.311 |
| PPP2R2D C268 (UniProt Q66LE6) | -0.131 |
| PRPF4 C342 (UniProt O43172) | 0.176 |
| PPFIA1 C738 (UniProt Q13136) | -0.175 |
| PRKCZ C107 (UniProt Q05513) | 0.12 |

Same assay, conditions: 200 µM; treatment time: 4 h; cell line lysate: HEK293T

| Target | log2 mean competition ratio |
| --- | --- |
| PRKDC C2244 (UniProt P78527) | -0.462 |
| POP5 C146 (UniProt Q969H6) | 0.104 |
| PRPF38A C116 (UniProt Q8NAV1) | -0.123 |
| PRKRA C106 (UniProt O75569) | 0.0674 |
| PRMT6 C221 (UniProt Q96LA8) | 0.409 |
| PPIL2 C387 (UniProt Q13356) | 0.0221 |
| PRORP C367 (UniProt O15091) | -0.01 |
| PRDM16 C771 | 0.127 |
| PRPF6 C339 (UniProt O94906) | 0.0226 |
| PPP2R5A C359 (UniProt Q15172) | 0.332 |
| PRKCD C208 (UniProt Q05655) | 0.0207 |
| PPP4R1 C663 (UniProt Q8TF05) | 0.153 |
| PRKDC C2435 (UniProt P78527) | -0.0917 |
| POLR2A C154 | -0.0551 |
| POLR2G C38 (UniProt P62487) | -0.0847 |
| PPM1G C351 (UniProt O15355) | -0.0643 |
| PRR12 C417 (UniProt Q9ULL5) | 0.347 |
| PORCN C375 (UniProt Q9H237) | 0.204 |
| PPP6R2 C665 (UniProt O75170) | 0.152 |

| Target | log2 mean competition ratio |
| --- | --- |
| POM121 C268 (UniProt Q96HA1) | -0.000758 |
| PPM1L C340 (UniProt Q5SGD2) | 0.208 |
| PPIG C310 (UniProt Q13427) | -0.117 |
| PPA2 C274 (UniProt Q9H2U2) | -0.314 |
| POLR3B C973 (UniProt Q9NW08) | 0.123 |
| PRKDC C1742 (UniProt P78527) | -0.0515 |
| POM121 C307 (UniProt Q96HA1) | 0.279 |
| POLR3A C1174 (UniProt O14802) | -0.195 |
| POLR2M C115 | -0.44 |
| PPIB C202 (UniProt P23284) | 0.0131 |
| PRR14L C1027 (UniProt Q5THK1) | -0.0812 |
| POLR3E C350 (UniProt Q9NVU0) | 0.196 |
| PRKCD C509 (UniProt Q05655) | -0.12 |
| POLR2A C1245 | 0.273 |
| PPP2R2D C268 (UniProt Q66LE6) | -0.0423 |
| PRPF4 C342 (UniProt O43172) | -0.0624 |
| PPFIA1 C738 (UniProt Q13136) | -0.00424 |
| PRKCZ C107 (UniProt Q05513) | -0.178 |

— the supplement of paper PMC11732987, “Enantioselective OTUD7B fragment discovery through chemoproteomics screening and high-throughput optimisation” (Communications Chemistry, 2025)
